# The other results are listed elsewhere or left out.
# Assays:
# Assay in all cases: glycan array binding signal (z-score within array); higher = stronger binding
# Details in all cases: glycan notation: IUPAC condensed, linker removed
# [1] = target: GalNAc(b1-4)GlcNAc(b1-2)Man
# Method in brief: (§1)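 Glycan array data were curated from 3228 arrays in the Consortium for Functional Glycomics database and kept only where the protein sequence was available. Glycan names were converted to IUPAC-condensed notation, and columns mapping to the same glycan were averaged. The binding signal is a within-array Z-score, averaged across arrays of the same protein sequence at different concentrations or buffers and across linkers. Negative Z-scores can be read as non-binding.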
# [2] = target: GalNAc(b1-4)GlcNAc(b1-2)Man(a1-3)[GalNAc(b1-4)GlcNAc(b1-2)Man(a1-6)]Man(b1-4)GlcNAc(b1-4)GlcNAc
# Method in brief: as §1
# [3] = target: GalNAc(b1-4)GlcNAc(b1-3)GalNAc(b1-4)GlcNAc
# Method in brief: as §1
# GalNAc(b1-4)GlcNAc6S = target: GalNAc(b1-4)GlcNAc6S
# Method in brief: as §1
# GalNAc(b1-6)GalNAc = target: GalNAc(b1-6)GalNAc
# Method in brief: as §1
# GalNAc3S(b1-4)GlcNAc = target: GalNAc3S(b1-4)GlcNAc
# Method in brief: as §1
# GalNAc3S(b1-4)GlcNAc3S = target: GalNAc3S(b1-4)GlcNAc3S
# Method in brief: as §1
# [4] = target: GalNAc3S(b1-4)[Fuc(a1-3)]GlcNAc
# Method in brief: as §1
# GalNAc4S6S(b1-4)GlcNAc = target: GalNAc4S6S(b1-4)GlcNAc
# Method in brief: as §1
# GalNAc6S(b1-4)GlcNAc = target: GalNAc6S(b1-4)GlcNAc
# Method in brief: as §1
# Glc(a1-4)Glc = target: Glc(a1-4)Glc
# Method in brief: as §1
# [5] = target: Glc(a1-4)Glc(a1-4)Glc(a1-4)Glc
# Method in brief: as §1
# Glc(a1-6)Glc(a1-6)Glc = target: Glc(a1-6)Glc(a1-6)Glc
# Method in brief: as §1
# [6] = target: Glc(a1-6)Glc(a1-6)Glc(a1-6)Glc
# Method in brief: as §1
# Glc(b1-4)Glc = target: Glc(b1-4)Glc
# Method in brief: as §1
# Glc(b1-6)Glc = target: Glc(b1-6)Glc
# Method in brief: as §1
# GlcA(b1-3)Gal = target: GlcA(b1-3)Gal
# Method in brief: as §1
# GlcA(b1-3)GlcNAc = target: GlcA(b1-3)GlcNAc
# Method in brief: as §1
# GlcA(b1-6)Gal = target: GlcA(b1-6)Gal
# Method in brief: as §1
# [7] = target: GlcA3S(b1-3)Gal(b1-4)GlcNAc(b1-2)Man
# Method in brief: as §1
# [8] = target: GlcA3S(b1-3)Gal(b1-4)GlcNAc(b1-3)Gal(b1-4)Glc
# Method in brief: as §1
# [9] = target: GlcNAc(a1-3)Gal(b1-4)GlcNAc
# Method in brief: as §1
# [10] = target: GlcNAc(a1-4)Gal(b1-3)GlcNAc
# Method in brief: as §1
# [11] = target: GlcNAc(a1-4)Gal(b1-4)GalNAc
# Method in brief: as §1
# [12] = target: GlcNAc(a1-4)Gal(b1-4)GlcNAc
# Method in brief: as §1
# [13] = target: GlcNAc(a1-4)Gal(b1-4)GlcNAc(b1-3)Gal(b1-4)Glc
# Method in brief: as §1
# [14] = target: GlcNAc(a1-4)Gal(b1-4)GlcNAc(b1-3)Gal(b1-4)GlcNAc
# Method in brief: as §1
# [15] = target: GlcNAc(a1-4)Gal(b1-4)GlcNAc(b1-3)Gal(b1-4)GlcNAc(b1-3)Gal(b1-4)GlcNAc
# Method in brief: as §1
# [16] = target: GlcNAc(a1-4)Gal(b1-4)GlcNAc(b1-3)Gal(b1-4)[Fuc(a1-3)]GlcNAc(b1-3)Gal(b1-4)[Fuc(a1-3)]GlcNAc
# Method in brief: as §1
# [17] = target: GlcNAc(a1-6)Gal(b1-4)GlcNAc
# Method in brief: as §1
# [18] = target: GlcNAc(b1-2)Gal(b1-3)GalNAc
# Method in brief: as §1
# [19] = target: GlcNAc(b1-2)Man(a1-3)[GlcNAc(b1-2)Man(a1-6)]Man(b1-4)GlcNAc(b1-4)GlcNAc
# Method in brief: as §1
# [20] = target: GlcNAc(b1-2)Man(a1-3)[GlcNAc(b1-2)Man(a1-6)]Man(b1-4)GlcNAc(b1-4)[Fuc(a1-6)]GlcNAc
# Method in brief: as §1
# [21] = target: GlcNAc(b1-2)Man(a1-3)[GlcNAc(b1-4)][GlcNAc(b1-2)Man(a1-6)]Man(b1-4)GlcNAc(b1-4)GlcNAc
# Method in brief: as §1
# [22] = target: GlcNAc(b1-2)Man(a1-3)[GlcNAc(b1-4)][GlcNAc(b1-2)Man(a1-6)]Man(b1-4)GlcNAc(b1-4)[Fuc(a1-6)]GlcNAc
# Method in brief: as §1
# [23] = target: GlcNAc(b1-2)[GlcNAc(b1-4)]Man(a1-3)[GlcNAc(b1-2)Man(a1-6)]Man(b1-4)GlcNAc(b1-4)GlcNAc
# Method in brief: as §1
# [24] = target: GlcNAc(b1-2)[GlcNAc(b1-4)]Man(a1-3)[GlcNAc(b1-4)][GlcNAc(b1-2)Man(a1-6)]Man(b1-4)GlcNAc(b1-4)GlcNAc
# Method in brief: as §1
binder,measurement,setting,value
"SfaEH (Escherichia coli), Q1RDG5 (protein) LLCRNNQTGQVFNSGDTSFRVNVSPVVQYDKSISVLDLSQLVSCQNEDSTGQNYDYLKILKGSGFSPALDTKTYGRLDFTSRPTGYARQLPLQFDLQVTEAFYQYGVWKPFPAKLYLYPAPGVFGKVINNGDLLATLYVNKFSTKGQEAGERNFTWRFYATNDVYIQTGTCRVSSNNVKVDLPSYPGGPVTVPLTVRCDQTQSVSYTLSGPVTGSGNTVFANTAASGSGGVGIQLSDNVGPVPAGQPRSLGQVGSSPVSLGLKASYALTGQASPTPGAVQSVINVTFSYN",glycan array binding signal (z-score),[1],-0.973
same,glycan array binding signal (z-score),[2],0.06
same,glycan array binding signal (z-score),[3],-0.039
same,glycan array binding signal (z-score),GalNAc(b1-4)GlcNAc6S,-0.303
same,glycan array binding signal (z-score),GalNAc(b1-6)GalNAc,-0.133
same,glycan array binding signal (z-score),GalNAc3S(b1-4)GlcNAc,-0.199
same,glycan array binding signal (z-score),GalNAc3S(b1-4)GlcNAc3S,0.153
same,glycan array binding signal (z-score),[4],2.28
same,glycan array binding signal (z-score),GalNAc4S6S(b1-4)GlcNAc,-1.12
same,glycan array binding signal (z-score),GalNAc6S(b1-4)GlcNAc,1
same,glycan array binding signal (z-score),Glc(a1-4)Glc,-0.104
same,glycan array binding signal (z-score),[5],-0.651
same,glycan array binding signal (z-score),Glc(a1-6)Glc(a1-6)Glc,-0.71
same,glycan array binding signal (z-score),[6],0.219
same,glycan array binding signal (z-score),Glc(b1-4)Glc,-0.406
same,glycan array binding signal (z-score),Glc(b1-6)Glc,-0.083
same,glycan array binding signal (z-score),GlcA(b1-3)Gal,-0.814
same,glycan array binding signal (z-score),GlcA(b1-3)GlcNAc,-0.542
same,glycan array binding signal (z-score),GlcA(b1-6)Gal,-0.918
same,glycan array binding signal (z-score),[7],-0.31
same,glycan array binding signal (z-score),[8],-0.505
same,glycan array binding signal (z-score),[9],0.08
same,glycan array binding signal (z-score),[10],-0.403
same,glycan array binding signal (z-score),[11],-0.363
same,glycan array binding signal (z-score),[12],-1.36
same,glycan array binding signal (z-score),[13],-0.748
same,glycan array binding signal (z-score),[14],-0.911
same,glycan array binding signal (z-score),[15],0.274
same,glycan array binding signal (z-score),[16],0.889
same,glycan array binding signal (z-score),[17],-0.498
same,glycan array binding signal (z-score),[18],-0.327
same,glycan array binding signal (z-score),[19],0.345
same,glycan array binding signal (z-score),[20],-0.917
same,glycan array binding signal (z-score),[21],-0.468
same,glycan array binding signal (z-score),[22],-0.029
same,glycan array binding signal (z-score),[23],0.014
same,glycan array binding signal (z-score),[24],-1.08
